Test results as given in PMC5323044.
These are yes or no findings as the source states them, for the method shown. For some of these results: Binding calls can cover weak binding; strength is not graded here. For some of these results: Sequences can lack the tags named with a protein. For some of these results: Binding seen in cells or lysates may run through a third protein.

Experiments:
[1] = biological target: T1, SNX6 (endogenous, mouse brain) (mouse (endogenous in brain)) (UniProt Q6P8X1); experiment: immunoisolation of vesicles (membrane IP); membrane fraction (p100) of mouse brain lysate, buffer without detergent (0.25 M sucrose, 150 mM NaCl); mouse anti-SNX6 antibody coupled to Dynabeads Protein G; immunoblotting
T1 sequence: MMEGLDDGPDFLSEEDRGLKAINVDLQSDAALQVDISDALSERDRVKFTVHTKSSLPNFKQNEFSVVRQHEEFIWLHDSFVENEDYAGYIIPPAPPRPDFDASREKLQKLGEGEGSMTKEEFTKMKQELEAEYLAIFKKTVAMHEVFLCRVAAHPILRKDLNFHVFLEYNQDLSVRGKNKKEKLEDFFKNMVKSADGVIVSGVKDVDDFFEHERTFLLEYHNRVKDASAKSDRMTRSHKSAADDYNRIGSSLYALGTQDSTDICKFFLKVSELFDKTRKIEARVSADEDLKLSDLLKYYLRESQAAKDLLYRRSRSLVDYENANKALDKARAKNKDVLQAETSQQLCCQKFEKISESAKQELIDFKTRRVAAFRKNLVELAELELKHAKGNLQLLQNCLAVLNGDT

[2] = biological target: T2, His-tagged SNX6 N-terminus (aa 1-181, encompassing the PX domain) (UniProt Q9UNH7); experiment: pull-down; His-SNX1-N or His-SNX6-N immobilized on Ni-NTA agarose, incubated with mouse brain lysate overnight at 4°C; bound proteins by immunoblotting; only the target purified
T2 sequence: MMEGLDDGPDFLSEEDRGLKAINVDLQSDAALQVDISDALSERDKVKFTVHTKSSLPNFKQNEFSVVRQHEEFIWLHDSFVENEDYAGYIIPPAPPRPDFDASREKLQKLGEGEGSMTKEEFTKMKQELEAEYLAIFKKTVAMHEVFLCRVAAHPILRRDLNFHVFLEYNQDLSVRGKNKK

GST-SNX6-N (aa 1-181) = biological target: T3, GST-SNX6-N (aa 1-181) (UniProt Q9UNH7); experiment: pull-down; in vitro binding assay: 2 μg of recombinant His-sumo-Homer protein incubated with GST, GST-SNX1-N or GST-SNX6-N immobilized on glutathione-Sepharose beads overnight at 4°C; immunoblotting; both purified
T3 sequence: T2 sequence

Row | Substance | binding [1] | binding [2] | binding (GST-SNX6-N (aa 1-181))
1 | dynein intermediate chain (DIC) (endogenous, mouse brain) | binds | – | –
2 | Homer1a (endogenous, mouse brain) | no binding | no binding | –
3 | His-sumo-Homer1c-C (aa188-366) (domain or fragment) | – | – | binds
